Assay results from the supplement of paper PMC10849652.
This is one part of the list.

Protein sequences, listed by entry. Tags and fused reporters are not part of them. Lines headed by an entry give the natural chain unless they say otherwise; changes in a name come on top.
UniProt Q9C0I1: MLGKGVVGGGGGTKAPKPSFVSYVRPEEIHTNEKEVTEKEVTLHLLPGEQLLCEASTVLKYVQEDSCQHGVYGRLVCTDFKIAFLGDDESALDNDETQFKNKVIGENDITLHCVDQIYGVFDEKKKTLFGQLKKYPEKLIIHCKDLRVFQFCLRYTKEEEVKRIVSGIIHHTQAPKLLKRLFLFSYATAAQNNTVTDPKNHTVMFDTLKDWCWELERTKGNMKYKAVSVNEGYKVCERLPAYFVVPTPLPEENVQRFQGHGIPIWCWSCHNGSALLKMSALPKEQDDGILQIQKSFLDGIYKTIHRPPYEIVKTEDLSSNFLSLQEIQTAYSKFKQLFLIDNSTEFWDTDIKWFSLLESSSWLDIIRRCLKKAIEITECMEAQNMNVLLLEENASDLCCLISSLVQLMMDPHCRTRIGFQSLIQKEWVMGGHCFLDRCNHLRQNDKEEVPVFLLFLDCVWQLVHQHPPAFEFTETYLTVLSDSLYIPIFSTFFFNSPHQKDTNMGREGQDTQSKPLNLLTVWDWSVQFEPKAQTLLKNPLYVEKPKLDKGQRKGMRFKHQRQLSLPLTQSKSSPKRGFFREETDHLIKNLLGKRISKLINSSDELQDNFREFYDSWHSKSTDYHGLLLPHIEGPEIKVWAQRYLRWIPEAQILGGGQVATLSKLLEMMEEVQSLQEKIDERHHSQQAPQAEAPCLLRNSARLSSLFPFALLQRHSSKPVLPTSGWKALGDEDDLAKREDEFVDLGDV
UniProt Q03426, whole entry, looked up: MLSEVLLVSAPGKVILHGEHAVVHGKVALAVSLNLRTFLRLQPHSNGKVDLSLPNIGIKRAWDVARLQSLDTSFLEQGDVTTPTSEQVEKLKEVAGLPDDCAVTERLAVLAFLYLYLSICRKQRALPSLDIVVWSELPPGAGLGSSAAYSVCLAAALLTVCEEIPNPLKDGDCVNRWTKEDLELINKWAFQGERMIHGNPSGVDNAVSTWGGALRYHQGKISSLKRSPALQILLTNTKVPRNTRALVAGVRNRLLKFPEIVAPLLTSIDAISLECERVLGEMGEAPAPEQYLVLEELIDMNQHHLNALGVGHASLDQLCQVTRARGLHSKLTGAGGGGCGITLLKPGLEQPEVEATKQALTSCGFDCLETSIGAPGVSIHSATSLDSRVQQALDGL
UniProt Q6UB35, whole entry, looked up: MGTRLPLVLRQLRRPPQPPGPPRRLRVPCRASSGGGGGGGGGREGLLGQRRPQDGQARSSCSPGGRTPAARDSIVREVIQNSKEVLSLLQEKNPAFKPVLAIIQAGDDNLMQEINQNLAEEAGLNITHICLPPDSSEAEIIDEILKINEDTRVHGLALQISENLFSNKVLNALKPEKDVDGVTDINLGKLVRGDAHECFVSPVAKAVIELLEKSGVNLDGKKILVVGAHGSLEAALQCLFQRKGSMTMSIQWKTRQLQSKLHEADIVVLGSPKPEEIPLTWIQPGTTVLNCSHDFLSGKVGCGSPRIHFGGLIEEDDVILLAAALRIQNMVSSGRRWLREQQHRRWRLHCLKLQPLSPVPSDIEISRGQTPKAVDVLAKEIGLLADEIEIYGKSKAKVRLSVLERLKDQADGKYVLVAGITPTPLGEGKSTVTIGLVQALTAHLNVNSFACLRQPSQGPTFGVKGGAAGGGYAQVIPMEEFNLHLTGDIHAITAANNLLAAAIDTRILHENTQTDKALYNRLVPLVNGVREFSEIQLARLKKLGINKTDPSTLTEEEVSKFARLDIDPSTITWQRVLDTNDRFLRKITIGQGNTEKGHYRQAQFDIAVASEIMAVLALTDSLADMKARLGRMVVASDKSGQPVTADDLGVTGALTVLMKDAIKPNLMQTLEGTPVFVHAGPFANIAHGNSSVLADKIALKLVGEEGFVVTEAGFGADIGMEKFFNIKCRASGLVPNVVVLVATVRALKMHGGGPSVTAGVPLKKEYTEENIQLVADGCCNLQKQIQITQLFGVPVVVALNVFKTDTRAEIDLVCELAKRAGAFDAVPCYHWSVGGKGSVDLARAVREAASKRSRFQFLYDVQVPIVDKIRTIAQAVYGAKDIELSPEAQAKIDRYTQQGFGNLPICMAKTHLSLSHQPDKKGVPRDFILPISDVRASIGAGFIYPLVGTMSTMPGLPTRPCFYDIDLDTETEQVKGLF
UniProt Q13496: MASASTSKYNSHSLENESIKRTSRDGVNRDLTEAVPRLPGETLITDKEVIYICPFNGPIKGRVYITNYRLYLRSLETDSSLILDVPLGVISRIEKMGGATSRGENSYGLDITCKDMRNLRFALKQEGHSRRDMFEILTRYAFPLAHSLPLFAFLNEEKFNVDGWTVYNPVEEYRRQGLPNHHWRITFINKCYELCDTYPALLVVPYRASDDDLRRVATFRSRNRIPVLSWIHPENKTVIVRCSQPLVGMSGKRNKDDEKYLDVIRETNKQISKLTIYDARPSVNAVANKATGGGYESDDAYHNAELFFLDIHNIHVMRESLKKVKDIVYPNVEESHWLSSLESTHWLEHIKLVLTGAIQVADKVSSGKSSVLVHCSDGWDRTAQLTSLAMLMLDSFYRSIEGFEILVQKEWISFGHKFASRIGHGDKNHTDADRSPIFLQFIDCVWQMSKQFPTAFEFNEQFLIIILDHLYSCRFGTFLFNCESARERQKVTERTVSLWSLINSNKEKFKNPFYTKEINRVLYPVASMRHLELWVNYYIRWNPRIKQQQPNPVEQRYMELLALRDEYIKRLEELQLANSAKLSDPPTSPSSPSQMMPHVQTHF
UniProt O94832: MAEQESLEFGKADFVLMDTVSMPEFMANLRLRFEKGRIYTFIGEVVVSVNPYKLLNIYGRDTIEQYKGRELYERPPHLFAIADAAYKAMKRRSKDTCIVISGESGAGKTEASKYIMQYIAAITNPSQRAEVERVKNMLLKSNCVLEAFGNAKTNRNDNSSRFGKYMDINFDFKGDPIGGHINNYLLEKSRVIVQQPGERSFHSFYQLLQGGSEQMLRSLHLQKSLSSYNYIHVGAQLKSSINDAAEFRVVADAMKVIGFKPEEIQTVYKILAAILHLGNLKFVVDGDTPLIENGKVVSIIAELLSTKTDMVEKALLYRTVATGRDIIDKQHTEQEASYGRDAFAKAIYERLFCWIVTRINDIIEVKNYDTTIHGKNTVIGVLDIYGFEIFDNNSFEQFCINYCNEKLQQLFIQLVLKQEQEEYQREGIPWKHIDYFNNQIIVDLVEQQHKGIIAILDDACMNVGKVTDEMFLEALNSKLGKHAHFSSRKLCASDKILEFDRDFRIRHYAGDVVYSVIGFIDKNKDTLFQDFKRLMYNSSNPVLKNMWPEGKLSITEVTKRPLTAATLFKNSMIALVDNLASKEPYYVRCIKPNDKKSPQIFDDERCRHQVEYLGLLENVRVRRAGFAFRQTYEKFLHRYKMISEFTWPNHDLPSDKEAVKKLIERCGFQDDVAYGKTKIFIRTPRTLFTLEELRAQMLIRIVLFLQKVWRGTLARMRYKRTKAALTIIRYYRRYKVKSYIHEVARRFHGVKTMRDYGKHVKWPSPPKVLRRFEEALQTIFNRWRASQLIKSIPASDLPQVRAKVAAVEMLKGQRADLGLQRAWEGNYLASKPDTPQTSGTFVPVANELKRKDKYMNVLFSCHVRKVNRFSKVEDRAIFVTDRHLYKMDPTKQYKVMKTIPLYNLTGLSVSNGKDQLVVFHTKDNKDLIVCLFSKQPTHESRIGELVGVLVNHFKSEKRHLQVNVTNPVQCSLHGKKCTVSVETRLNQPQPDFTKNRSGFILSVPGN
UniProt Q15800: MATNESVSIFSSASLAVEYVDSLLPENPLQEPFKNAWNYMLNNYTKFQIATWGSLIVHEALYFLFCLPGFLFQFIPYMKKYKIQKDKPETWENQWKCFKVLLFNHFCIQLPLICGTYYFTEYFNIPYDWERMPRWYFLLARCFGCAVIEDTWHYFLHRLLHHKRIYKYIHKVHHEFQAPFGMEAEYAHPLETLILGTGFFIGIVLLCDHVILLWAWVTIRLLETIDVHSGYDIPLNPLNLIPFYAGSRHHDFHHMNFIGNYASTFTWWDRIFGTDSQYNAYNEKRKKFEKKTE
UniProt P00403, whole entry, looked up: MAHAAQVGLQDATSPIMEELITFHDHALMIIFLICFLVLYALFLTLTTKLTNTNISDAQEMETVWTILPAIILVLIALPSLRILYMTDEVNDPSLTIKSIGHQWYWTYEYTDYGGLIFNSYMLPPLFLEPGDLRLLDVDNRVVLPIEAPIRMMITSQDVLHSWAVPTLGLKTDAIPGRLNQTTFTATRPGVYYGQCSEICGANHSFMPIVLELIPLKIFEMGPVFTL
UniProt P03915, whole entry, looked up: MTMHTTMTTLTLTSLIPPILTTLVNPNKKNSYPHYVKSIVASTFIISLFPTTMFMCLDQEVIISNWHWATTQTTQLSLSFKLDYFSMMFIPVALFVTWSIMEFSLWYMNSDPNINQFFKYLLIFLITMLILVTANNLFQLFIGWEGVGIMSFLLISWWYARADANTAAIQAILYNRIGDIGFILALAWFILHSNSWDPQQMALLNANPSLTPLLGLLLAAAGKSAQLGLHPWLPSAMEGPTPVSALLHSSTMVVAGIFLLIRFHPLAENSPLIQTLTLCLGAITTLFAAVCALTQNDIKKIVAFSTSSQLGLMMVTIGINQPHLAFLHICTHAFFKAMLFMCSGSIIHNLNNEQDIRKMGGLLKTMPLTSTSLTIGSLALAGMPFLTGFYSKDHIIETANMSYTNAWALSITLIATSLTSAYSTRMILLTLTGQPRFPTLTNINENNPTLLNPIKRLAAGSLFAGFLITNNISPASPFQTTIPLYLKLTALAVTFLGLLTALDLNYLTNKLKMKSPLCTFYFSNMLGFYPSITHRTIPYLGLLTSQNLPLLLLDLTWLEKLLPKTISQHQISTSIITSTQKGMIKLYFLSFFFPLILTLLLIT
UniProt Q6P444: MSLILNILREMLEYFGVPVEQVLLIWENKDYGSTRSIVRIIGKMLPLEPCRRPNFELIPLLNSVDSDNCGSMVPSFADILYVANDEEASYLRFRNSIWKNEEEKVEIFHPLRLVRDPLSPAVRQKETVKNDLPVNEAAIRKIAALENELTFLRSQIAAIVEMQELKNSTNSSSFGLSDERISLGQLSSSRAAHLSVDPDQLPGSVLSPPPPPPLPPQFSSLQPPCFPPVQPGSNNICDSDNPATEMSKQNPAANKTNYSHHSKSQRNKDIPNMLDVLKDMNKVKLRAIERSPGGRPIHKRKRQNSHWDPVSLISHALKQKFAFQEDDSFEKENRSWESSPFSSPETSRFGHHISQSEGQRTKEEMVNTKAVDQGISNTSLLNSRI
UniProt O00159, whole entry, looked up: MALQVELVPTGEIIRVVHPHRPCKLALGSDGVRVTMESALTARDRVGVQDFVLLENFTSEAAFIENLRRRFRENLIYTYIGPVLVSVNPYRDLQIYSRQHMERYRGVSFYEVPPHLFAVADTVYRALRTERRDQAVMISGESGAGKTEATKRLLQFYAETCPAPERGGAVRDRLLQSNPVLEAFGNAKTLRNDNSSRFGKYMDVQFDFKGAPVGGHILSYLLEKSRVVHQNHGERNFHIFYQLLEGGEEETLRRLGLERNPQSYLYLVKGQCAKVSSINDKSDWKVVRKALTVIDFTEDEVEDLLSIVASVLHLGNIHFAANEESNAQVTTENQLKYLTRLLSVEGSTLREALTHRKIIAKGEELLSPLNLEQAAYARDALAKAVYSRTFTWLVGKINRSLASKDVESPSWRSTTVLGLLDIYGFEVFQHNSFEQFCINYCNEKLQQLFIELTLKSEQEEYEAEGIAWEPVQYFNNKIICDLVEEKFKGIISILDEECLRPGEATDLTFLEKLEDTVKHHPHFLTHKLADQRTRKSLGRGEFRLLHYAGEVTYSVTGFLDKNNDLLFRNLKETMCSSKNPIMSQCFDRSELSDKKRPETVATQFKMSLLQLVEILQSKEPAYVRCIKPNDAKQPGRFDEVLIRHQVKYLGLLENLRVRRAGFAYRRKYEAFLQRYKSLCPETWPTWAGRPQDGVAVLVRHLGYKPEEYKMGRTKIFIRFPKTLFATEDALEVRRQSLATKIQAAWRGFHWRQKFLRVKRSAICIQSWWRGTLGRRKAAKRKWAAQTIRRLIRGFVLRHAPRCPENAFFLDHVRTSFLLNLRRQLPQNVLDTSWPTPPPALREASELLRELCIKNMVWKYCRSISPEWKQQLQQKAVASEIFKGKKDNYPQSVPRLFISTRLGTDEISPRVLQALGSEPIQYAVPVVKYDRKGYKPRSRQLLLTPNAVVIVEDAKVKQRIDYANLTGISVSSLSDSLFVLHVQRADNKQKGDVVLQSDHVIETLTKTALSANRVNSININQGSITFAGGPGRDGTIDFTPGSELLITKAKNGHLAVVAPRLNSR
UniProt Q9Y3D2: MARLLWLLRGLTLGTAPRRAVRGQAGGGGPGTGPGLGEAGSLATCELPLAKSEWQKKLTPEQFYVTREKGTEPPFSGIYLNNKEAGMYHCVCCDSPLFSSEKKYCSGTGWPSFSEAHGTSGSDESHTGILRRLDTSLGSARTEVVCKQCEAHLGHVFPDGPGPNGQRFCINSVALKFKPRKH

Columns and labels:
Assay in all cases: log2 fold change, soluble protein after heating vs DMSO (PISA); higher = thermal stabilisation; K562 cells, 10 uM, 30 min; active = over 0.2 and 3.5 SD of the protein, either way, in both replicates (recomputed)
saracatinib = compound: CN1CCN(CCOc2cc(OC3CCOCC3)c3c(Nc4c(Cl)ccc5c4OCO5)ncnc3c2)CC1 [saracatinib]
Outline: (§1)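 For each measurement, 10 μM compound was applied for 30 min to K562 cells at 2×10^6 cells/mL. Aliquots were heated for 3 min across 48°C-58°C, pooled, and extracted in PBS with 0.5% NP-40 at 4°C; the supernatant after 21,000xg for 90 min was soluble protein. This was quantified by TMTpro 16plex LC-MS/MS with channel sums equalised, and thermal stability was reported relative to control samples from duplicates, on a log2 fold-change scale.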

sotrastaurin = compound: CN1CCN(c2nc(C3=C(c4c[nH]c5ccccc45)C(=O)NC3=O)c3ccccc3n2)CC1 [sotrastaurin]
Outline: as §1

alvocidib = compound: CN1CC[C@H](c2c(O)cc(O)c3c(=O)cc(-c4ccccc4Cl)oc23)[C@H](O)C1 [alvocidib]
Outline: as §1

Tubastatin A = compound: CN1CCc2c(c3ccccc3n2Cc2ccc(C(=O)NO)cc2)C1 [Tubastatin A]
Outline: as §1

[1] = compound: CNC(=O)C1=CC=CC=C1NC2=NC(=NC=C2Cl)NC3=C(C=C(C=C3)N4CCOCC4)OC
Outline: as §1

defactinib = compound: CNC(=O)c1ccc(Nc2ncc(C(F)(F)F)c(NCc3nccnc3N(C)S(C)(=O)=O)n2)cc1 [defactinib]
Outline: as §1

rucaparib = compound: CNCc1ccc(-c2[nH]c3cc(F)cc4c3c2CCNC4=O)cc1 [rucaparib]
Outline: as §1

[2] = compound: CNc1nc(-c2ccc3c(N)n[nH]c3c2)cc(N2C[C@@H](C(=O)NC3CCCCC3)CC[C@H]2C)n1
Outline: as §1

encorafenib = compound: COC(=O)N[C@@H](C)CNc1nccc(-c2cn(C(C)C)nc2-c2cc(Cl)cc(NS(C)(=O)=O)c2F)n1 [encorafenib]
Outline: as §1

[3] = compound: COC(=O)[C@H](CCSC)NC(=O)C1=C(C=C(C=C1)NC[C@H](CS)N)C2=CC=CC=C2
Outline: as §1

[4] = compound: COC1=CC=C(C=C1)CN2C=CC3=C2C=C(C=C3)C(=O)NO
Outline: as §1

filanesib = compound: CON(C)C(=O)N1N=C(c2cc(F)ccc2F)S[C@@]1(CCCN)c1ccccc1 [filanesib]
Outline: as §1

zotarolimus = compound: CO[C@H]1C[C@@H]2CC[C@@H](C)[C@@](O)(O2)C(=O)C(=O)N2CCCC[C@H]2C(=O)O[C@H]([C@H](C)C[C@@H]2CC[C@H](n3cnnn3)[C@H](OC)C2)CC(=O)[C@H](C)/C=C(\C)[C@@H](O)[C@@H](OC)C(=O)[C@H](C)C[C@H](C)/C=C/C=C/C=C/1C [zotarolimus]
Outline: as §1

idasanutlin = compound: COc1cc(C(=O)O)ccc1NC(=O)[C@@H]1N[C@@H](CC(C)(C)C)[C@](C#N)(c2ccc(Cl)cc2F)[C@H]1c1cccc(Cl)c1F [idasanutlin]
Outline: as §1

alisertib = compound: COc1cc(Nc2ncc3c(n2)-c2ccc(Cl)cc2C(c2c(F)cccc2OC)=NC3)ccc1C(=O)O [alisertib]
Outline: as §1

[5] = compound: COc1cc2nc(-c3cc(F)ccc3O)nc(N[C@@H]3CNC[C@H]3C(C)(C)O)c2cc1OC
Outline: as §1

gefitinib = compound: COc1cc2ncnc(Nc3ccc(F)c(Cl)c3)c2cc1OCCCN1CCOCC1 [gefitinib]
Outline: as §1

[6] = compound: COc1cccc2cc(-c3nc([C@H]4CC[C@H](C(=O)O)CC4)n4ncnc(N)c34)[nH]c12
Outline: as §1

lapatinib = compound: CS(=O)(=O)CCNCc1ccc(-c2ccc3ncnc(Nc4ccc(OCc5cccc(F)c5)c(Cl)c4)c3c2)o1 [lapatinib]
Outline: as §1

pictilisib = compound: CS(=O)(=O)N1CCN(Cc2cc3nc(-c4cccc5[nH]ncc45)nc(N4CCOCC4)c3s2)CC1 [pictilisib]
Outline: as §1

Measured: log2 fold change

MTMR12 (UniProt Q9C0I1)
inactive: saracatinib -0.001 | sotrastaurin -0.001 | alvocidib -0.009 | Tubastatin A -0.011 | [1] -0.045 | defactinib -0.02 | rucaparib 0.013 | [2] -0.007 | encorafenib -0.002 | [3] 0.022 | [4] -0.013 | filanesib 0.03 | zotarolimus -0.022 | idasanutlin -0.012 | alisertib -0.05 | [5] 0.039 | gefitinib 0.018 | [6] 0.052 | lapatinib 0.019 | pictilisib 0.012

MVK (UniProt Q03426)
inactive: saracatinib -0.006 | sotrastaurin 0.021 | alvocidib -0.003 | Tubastatin A -0.02 | [1] -0.027 | defactinib -0.051 | rucaparib -0.022 | [2] -0.02 | encorafenib 0.001 | [3] -0.007 | [4] -0.02 | filanesib 0.008 | zotarolimus -0.025 | idasanutlin 0.057 | alisertib -0.025 | [5] 0.002 | gefitinib 0.02 | [6] 0.049 | lapatinib -0.012 | pictilisib 0.027

MTHFD1L (UniProt Q6UB35)
inactive: saracatinib -0.006 | sotrastaurin 0.019 | alvocidib -0.086 | Tubastatin A -0.014 | [1] -0.024 | defactinib -0.049 | rucaparib -0.022 | [2] 0.024 | encorafenib 0.027 | [3] -0.036 | [4] 0.021 | filanesib -0.001 | zotarolimus 0.023 | idasanutlin -0.15 | alisertib -0.071 | [5] 0.044 | gefitinib 0.03 | [6] 0.018 | lapatinib -0.006 | pictilisib 0.055

MTM1 (UniProt Q13496)
inactive: saracatinib 0.093 | sotrastaurin 0.016 | alvocidib 0.01 | Tubastatin A 0.068 | [1] -0.085 | defactinib -0.093 | rucaparib -0.007 | [2] 0.025 | encorafenib -0.055 | [3] -0.014 | [4] 0.006 | filanesib -0.001 | zotarolimus 0.036 | idasanutlin -0.072 | alisertib -0.019 | [5] -0.039 | gefitinib 0.029 | [6] 0.042 | lapatinib 0.008 | pictilisib -0.042

MYO1D (UniProt O94832)
inactive: saracatinib -0.008 | sotrastaurin 0.011 | alvocidib 0.099 | Tubastatin A 0.094 | [1] -0.021 | defactinib 0.061 | rucaparib 0.229 | [2] 0.048 | encorafenib 0.017 | [3] 0.024 | [4] -0.019 | filanesib 0.132 | zotarolimus 0.039 | idasanutlin 0.059 | alisertib 0 | [5] -0.025 | gefitinib 0.038 | [6] -0.071 | lapatinib -0.035 | pictilisib -0.073

MYCBP2 (UniProt O75592)
inactive: saracatinib -0.203 | sotrastaurin 0.447 | alvocidib 0.064 | Tubastatin A -0.061 | [1] 0.054 | defactinib 0.126 | rucaparib -0.073 | [2] 0.252 | encorafenib -0.163 | [3] 0.226 | [4] -0.52 | filanesib 0.363 | zotarolimus -0.043 | idasanutlin -0.038 | alisertib 0.062 | [5] 0.323 | gefitinib 0.036 | [6] 0.461 | lapatinib -0.104 | pictilisib 0.227

MYH9 (UniProt P35579)
inactive: saracatinib 0.05 | sotrastaurin -0.05 | alvocidib -0.067 | Tubastatin A -0.003 | [1] 0.012 | defactinib -0.04 | rucaparib -0.121 | [2] 0.018 | encorafenib 0.037 | [3] -0.029 | [4] 0.094 | filanesib -0.123 | zotarolimus 0.048 | idasanutlin -0.043 | alisertib 0.014 | [5] 0 | gefitinib 0.006 | [6] -0.017 | lapatinib 0.072 | pictilisib -0.103

MSMO1 (UniProt Q15800)
inactive: saracatinib 0.087 | sotrastaurin 0.042 | alvocidib 0.014 | Tubastatin A 0.012 | [1] -0.015 | defactinib 0.045 | rucaparib -0.091 | [2] 0.019 | encorafenib 0.01 | [3] 0.028 | [4] -0.207 | filanesib -0.159 | zotarolimus -0.06 | idasanutlin -0.101 | alisertib -0.012 | [5] -0.119 | gefitinib 0.009 | [6] 0.06 | lapatinib 0.013 | pictilisib -0.048

MT-CO2 (UniProt P00403)
inactive: saracatinib -0.001 | sotrastaurin 0.033 | alvocidib -0.048 | Tubastatin A -0.094 | [1] -0.012 | defactinib 0 | rucaparib -0.027 | [2] -0.051 | encorafenib 0.01 | [3] 0.103 | [4] -0.278 | filanesib 0.056 | zotarolimus 0.012 | idasanutlin -0.098 | alisertib -0.067 | [5] -0.097 | gefitinib 0.036 | [6] 0.028 | lapatinib -0.046 | pictilisib 0

MVD (UniProt P53602)
inactive: saracatinib 0.078 | sotrastaurin 0.019 | alvocidib -0.023 | Tubastatin A 0.005 | [1] -0.022 | defactinib -0.034 | rucaparib -0.017 | [2] -0.031 | encorafenib -0.017 | [3] 0.012 | [4] 0.051 | filanesib -0.068 | zotarolimus -0.014 | idasanutlin -0.031 | alisertib -0.08 | [5] -0.026 | gefitinib 0.011 | [6] 0.006 | lapatinib 0.036 | pictilisib 0.024

MTPAP (UniProt Q9NVV4)
inactive: saracatinib -0.093 | sotrastaurin 0.005 | alvocidib 0.121 | Tubastatin A 0.02 | [1] 0.06 | defactinib 0.126 | rucaparib 0.198 | [2] 0.02 | encorafenib 0.15 | [3] -0.046 | [4] -0.055 | filanesib 0.18 | zotarolimus -0.044 | idasanutlin 0.044 | alisertib 0.009 | [5] 0.1 | gefitinib -0.05 | [6] -0.156 | lapatinib 0.078 | pictilisib -0.112

MT-ND5 (UniProt P03915)
inactive: saracatinib 0.102 | sotrastaurin -0.009 | alvocidib 0.107 | Tubastatin A -0.002 | [1] 0.001 | defactinib -0.004 | rucaparib 0 | [2] -0.07 | encorafenib -0.021 | [3] 0.111 | [4] -0.014 | filanesib -0.12 | zotarolimus 0.022 | idasanutlin 0 | alisertib 0 | [5] 0.102 | gefitinib -0.007 | [6] 0 | lapatinib 0.015 | pictilisib -0.142

MSI2 (UniProt Q96DH6)
inactive: saracatinib -0.021 | sotrastaurin 0.025 | alvocidib 0.111 | Tubastatin A 0.078 | [1] 0.066 | defactinib 0.129 | rucaparib 0.117 | [2] 0.005 | encorafenib -0.004 | [3] -0.002 | [4] -0.043 | filanesib 0.063 | zotarolimus 0.007 | idasanutlin 0.113 | alisertib -0.05 | [5] 0.037 | gefitinib -0.079 | [6] 0.01 | lapatinib -0.014 | pictilisib -0.066

MTFR2 (UniProt Q6P444)
inactive: saracatinib 0.021 | sotrastaurin -0.012 | alvocidib -0.019 | Tubastatin A 0.022 | [1] -0.051 | defactinib -0.04 | rucaparib -0.008 | [2] -0.068 | encorafenib -0.033 | [3] -0.028 | [4] -0.01 | filanesib -0.076 | zotarolimus -0.015 | idasanutlin -0.151 | alisertib -0.288 | [5] -0.028 | gefitinib -0.022 | [6] 0.071 | lapatinib -0.308

MYO1C (UniProt O00159)
inactive: saracatinib -0.075 | sotrastaurin -0.141 | alvocidib 0.096 | Tubastatin A 0.036 | [1] 0.01 | defactinib 0.059 | rucaparib 0.208 | [2] 0.077 | encorafenib 0.209 | [3] -0.022 | [4] 0.138 | filanesib 0.174 | zotarolimus 0.086 | idasanutlin 0.045 | alisertib -0.009 | [5] -0.05 | gefitinib 0.001 | [6] -0.128 | lapatinib -0.062 | pictilisib -0.007

MSRB2 (UniProt Q9Y3D2)
inactive: saracatinib 0.08 | sotrastaurin 0.021 | alvocidib -0.103 | Tubastatin A 0.235 | [1] 0.049 | defactinib -0.031 | rucaparib 0.103 | [2] 0.019 | encorafenib 0.013 | [3] 0.044 | [4] 0.234 | filanesib -0.082 | zotarolimus -0.053 | idasanutlin -0.029 | alisertib 0.012 | [5] 0.197 | gefitinib -0.189 | [6] 0.041 | lapatinib 0.245 | pictilisib 0.037
